This is one part of the list.
Compound: C1=CC=C(C=C1)[C@H](COC2=CC3=C(C=C2)NC(=O)N3)NC(=O)C4=CC=CN(C4=O)CC5=CC(=C(C=C5)F)F
Test: log2 fold change, soluble protein after heating vs DMSO (PISA); higher = thermal stabilisation; K562 lysate, 10 uM; active = over 0.2 and 3.5 SD of the protein, either way, in both replicates (recomputed)
Outline: (§1)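 Following dounce homogenisation of K562 pellets in PBS pH 7.4 with 1 mM MgCl2, crude extract at 1 mg/mL protein was incubated for 30 min with 10 μM compound. Aliquots were then heated for 3 min over 48°C-58°C and pooled, NP-40 was added to 0.5% at 4°C, and soluble protein was recovered as the supernatant at 21,000xg for 90 min. Channel-sum-equalised TMTpro 16plex LC-MS/MS quantified this protein. Each value, from duplicates, is a log-two fold change in thermal stability relative to solvent controls.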

Protein sequences, listed by entry. Tags and fused reporters are not part of them. Lines headed by an entry give the natural chain unless they say otherwise; changes in a name come on top.
UniProt Q9Y265, whole entry, looked up: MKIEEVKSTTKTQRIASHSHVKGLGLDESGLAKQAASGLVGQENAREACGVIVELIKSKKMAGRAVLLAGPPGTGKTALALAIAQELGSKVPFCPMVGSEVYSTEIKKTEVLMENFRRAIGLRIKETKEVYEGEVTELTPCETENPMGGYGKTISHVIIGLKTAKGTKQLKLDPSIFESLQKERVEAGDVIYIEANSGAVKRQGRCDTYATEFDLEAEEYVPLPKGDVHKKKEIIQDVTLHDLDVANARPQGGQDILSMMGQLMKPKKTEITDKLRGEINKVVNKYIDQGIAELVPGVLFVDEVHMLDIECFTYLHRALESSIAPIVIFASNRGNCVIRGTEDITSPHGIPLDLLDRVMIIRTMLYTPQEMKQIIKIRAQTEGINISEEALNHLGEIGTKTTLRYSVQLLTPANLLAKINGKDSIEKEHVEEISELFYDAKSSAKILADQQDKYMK
UniProt Q8N2Y8: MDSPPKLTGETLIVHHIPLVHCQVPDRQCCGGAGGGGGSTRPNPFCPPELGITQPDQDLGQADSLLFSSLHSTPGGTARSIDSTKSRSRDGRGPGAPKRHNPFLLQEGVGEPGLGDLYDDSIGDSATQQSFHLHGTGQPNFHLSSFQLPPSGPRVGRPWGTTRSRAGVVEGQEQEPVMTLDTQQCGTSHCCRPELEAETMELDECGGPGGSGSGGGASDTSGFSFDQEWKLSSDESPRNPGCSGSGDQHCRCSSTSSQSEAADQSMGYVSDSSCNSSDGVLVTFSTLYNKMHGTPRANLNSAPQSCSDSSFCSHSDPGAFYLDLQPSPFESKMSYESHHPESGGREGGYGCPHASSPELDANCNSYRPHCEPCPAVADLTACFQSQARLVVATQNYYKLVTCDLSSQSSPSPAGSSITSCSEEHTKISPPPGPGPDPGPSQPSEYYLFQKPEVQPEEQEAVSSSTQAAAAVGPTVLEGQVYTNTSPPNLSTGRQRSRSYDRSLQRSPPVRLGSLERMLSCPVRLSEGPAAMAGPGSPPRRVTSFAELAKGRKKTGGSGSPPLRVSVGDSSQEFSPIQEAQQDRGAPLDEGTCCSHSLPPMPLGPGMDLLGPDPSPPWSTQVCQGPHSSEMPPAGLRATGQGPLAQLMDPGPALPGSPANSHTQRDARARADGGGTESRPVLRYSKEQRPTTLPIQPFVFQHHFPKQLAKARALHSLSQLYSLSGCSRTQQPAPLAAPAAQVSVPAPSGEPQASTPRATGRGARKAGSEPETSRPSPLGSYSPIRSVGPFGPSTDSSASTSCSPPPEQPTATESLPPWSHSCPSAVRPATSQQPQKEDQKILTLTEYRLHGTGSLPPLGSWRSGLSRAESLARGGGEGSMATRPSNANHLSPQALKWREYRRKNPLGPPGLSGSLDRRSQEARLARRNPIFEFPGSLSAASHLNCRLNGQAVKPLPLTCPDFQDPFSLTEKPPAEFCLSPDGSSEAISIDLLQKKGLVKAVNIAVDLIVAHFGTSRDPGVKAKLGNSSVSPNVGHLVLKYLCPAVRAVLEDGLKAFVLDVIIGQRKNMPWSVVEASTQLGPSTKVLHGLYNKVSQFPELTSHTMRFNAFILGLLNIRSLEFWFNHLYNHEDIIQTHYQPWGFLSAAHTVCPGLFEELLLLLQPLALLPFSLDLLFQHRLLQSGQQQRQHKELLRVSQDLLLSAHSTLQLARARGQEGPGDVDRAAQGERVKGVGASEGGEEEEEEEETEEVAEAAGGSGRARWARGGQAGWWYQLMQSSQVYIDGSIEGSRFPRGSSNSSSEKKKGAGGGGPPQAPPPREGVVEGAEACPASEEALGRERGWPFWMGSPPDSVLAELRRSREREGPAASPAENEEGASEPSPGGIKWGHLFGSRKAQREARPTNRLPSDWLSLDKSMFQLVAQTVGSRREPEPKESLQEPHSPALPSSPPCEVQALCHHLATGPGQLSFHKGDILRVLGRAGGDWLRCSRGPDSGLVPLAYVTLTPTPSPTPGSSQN
UniProt Q86VV8: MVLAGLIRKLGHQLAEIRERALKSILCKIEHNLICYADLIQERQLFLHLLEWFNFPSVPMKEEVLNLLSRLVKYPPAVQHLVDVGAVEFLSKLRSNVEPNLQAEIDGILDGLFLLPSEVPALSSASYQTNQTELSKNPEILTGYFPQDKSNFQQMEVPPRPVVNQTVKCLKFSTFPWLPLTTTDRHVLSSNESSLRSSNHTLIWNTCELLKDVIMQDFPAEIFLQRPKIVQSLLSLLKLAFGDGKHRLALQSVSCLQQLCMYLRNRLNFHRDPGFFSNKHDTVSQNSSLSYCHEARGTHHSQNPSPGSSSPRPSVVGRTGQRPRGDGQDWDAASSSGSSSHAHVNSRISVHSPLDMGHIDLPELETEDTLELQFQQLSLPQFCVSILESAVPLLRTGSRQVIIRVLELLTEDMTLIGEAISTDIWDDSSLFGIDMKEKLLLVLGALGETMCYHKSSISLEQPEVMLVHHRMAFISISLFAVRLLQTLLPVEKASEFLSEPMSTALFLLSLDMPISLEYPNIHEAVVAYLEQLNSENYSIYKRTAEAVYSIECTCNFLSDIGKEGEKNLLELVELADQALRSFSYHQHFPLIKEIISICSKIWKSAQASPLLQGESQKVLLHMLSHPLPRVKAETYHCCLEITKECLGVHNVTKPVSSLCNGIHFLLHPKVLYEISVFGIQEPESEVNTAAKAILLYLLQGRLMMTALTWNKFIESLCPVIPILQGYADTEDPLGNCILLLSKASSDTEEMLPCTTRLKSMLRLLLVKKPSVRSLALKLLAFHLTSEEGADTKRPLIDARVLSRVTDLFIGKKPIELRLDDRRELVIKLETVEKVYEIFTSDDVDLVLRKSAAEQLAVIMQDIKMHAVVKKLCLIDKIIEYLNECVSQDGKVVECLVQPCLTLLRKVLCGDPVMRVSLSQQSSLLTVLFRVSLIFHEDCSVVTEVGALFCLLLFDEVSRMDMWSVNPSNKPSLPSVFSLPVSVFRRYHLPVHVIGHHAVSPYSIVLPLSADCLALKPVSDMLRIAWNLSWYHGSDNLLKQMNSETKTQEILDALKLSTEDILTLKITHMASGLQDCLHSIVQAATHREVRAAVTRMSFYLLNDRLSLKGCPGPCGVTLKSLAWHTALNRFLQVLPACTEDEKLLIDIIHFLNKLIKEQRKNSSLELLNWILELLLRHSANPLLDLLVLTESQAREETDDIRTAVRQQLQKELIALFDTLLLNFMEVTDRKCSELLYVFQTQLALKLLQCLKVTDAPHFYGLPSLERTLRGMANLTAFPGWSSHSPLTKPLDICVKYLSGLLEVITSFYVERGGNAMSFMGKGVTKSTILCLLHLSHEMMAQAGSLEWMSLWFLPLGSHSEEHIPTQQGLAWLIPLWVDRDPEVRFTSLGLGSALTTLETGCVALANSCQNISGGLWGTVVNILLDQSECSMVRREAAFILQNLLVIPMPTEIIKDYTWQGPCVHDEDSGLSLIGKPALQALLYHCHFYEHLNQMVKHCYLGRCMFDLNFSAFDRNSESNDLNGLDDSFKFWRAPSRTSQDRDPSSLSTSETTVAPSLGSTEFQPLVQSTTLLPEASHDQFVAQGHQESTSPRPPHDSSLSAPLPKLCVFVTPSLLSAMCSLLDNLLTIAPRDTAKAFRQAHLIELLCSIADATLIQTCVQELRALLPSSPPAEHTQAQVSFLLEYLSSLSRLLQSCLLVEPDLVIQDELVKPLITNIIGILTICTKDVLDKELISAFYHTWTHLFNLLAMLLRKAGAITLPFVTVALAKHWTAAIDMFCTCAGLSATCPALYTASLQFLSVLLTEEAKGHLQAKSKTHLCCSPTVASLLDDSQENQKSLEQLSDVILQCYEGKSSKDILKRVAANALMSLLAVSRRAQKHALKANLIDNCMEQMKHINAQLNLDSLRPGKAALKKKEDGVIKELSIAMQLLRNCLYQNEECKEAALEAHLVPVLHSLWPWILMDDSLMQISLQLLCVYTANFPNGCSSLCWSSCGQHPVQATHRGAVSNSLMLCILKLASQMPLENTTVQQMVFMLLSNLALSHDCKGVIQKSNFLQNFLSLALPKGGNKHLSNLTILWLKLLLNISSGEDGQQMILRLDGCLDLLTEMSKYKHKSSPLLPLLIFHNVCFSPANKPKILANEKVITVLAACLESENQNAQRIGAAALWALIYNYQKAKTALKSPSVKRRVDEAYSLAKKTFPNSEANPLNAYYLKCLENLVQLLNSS
UniProt Q9Y224: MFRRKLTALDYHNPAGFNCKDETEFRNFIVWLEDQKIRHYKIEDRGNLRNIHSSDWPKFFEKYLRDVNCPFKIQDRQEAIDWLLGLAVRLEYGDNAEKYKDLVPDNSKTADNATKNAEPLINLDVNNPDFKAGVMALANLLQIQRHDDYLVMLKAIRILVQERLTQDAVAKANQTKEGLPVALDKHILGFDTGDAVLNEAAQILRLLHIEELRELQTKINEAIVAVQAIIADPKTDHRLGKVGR
UniProt Q9NQC3: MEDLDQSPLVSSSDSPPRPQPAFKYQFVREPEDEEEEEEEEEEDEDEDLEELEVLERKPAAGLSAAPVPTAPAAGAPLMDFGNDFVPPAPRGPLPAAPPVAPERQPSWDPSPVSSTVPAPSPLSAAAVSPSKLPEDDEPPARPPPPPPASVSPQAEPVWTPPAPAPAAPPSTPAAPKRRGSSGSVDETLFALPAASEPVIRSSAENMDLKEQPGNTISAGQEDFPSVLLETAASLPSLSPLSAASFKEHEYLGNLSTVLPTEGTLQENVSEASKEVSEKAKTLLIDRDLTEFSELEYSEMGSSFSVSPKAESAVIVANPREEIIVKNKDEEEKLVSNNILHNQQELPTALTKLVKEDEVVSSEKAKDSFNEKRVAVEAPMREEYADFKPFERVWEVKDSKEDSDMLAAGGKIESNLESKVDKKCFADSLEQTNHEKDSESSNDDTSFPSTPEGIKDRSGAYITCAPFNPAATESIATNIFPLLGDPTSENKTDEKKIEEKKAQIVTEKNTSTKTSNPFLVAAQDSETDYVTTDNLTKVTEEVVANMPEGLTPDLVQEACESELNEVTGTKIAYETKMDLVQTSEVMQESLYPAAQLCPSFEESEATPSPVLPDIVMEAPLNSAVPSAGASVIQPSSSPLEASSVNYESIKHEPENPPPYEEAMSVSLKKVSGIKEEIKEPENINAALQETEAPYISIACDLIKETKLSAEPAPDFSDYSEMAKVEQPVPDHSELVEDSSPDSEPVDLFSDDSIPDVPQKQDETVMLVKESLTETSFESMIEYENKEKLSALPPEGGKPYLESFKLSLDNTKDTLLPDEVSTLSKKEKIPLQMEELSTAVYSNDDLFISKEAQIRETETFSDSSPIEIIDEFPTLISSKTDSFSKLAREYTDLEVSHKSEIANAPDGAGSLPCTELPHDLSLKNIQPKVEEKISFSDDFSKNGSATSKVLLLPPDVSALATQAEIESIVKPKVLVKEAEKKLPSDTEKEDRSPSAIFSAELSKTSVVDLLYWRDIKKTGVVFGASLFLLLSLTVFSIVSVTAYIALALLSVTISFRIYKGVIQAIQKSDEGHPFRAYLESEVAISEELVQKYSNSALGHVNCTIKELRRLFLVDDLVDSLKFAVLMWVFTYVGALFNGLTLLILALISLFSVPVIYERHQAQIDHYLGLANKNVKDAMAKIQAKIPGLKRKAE
UniProt Q9BUL9: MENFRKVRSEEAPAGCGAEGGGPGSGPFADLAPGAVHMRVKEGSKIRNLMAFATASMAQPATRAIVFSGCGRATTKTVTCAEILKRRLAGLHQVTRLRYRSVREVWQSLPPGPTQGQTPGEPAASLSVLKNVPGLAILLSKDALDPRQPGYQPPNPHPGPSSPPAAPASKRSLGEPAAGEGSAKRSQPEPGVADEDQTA
UniProt P78345: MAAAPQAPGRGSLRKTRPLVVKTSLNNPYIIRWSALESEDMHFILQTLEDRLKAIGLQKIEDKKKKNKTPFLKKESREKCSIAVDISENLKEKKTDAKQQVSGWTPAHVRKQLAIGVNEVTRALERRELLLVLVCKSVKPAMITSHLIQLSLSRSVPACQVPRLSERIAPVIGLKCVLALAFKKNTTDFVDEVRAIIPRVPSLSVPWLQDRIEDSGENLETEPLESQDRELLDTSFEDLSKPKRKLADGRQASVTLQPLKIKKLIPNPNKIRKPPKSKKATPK
UniProt Q9Y3B9: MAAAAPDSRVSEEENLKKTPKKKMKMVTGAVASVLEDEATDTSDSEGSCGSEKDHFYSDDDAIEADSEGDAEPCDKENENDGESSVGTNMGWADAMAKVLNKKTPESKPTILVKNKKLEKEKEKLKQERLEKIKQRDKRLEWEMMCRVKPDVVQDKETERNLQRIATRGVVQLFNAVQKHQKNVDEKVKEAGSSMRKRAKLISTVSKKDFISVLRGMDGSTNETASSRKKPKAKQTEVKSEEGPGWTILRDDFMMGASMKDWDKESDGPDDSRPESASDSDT
UniProt P05387, whole entry, looked up: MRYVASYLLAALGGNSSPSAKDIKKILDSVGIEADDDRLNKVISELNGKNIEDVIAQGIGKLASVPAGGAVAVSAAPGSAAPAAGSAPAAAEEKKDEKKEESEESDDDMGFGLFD

| Target | log2 fold change |
| --- | --- |
| RRP1 (UniProt P56182) | inactive: -0.045 |
| RPS16 (UniProt P62249) | inactive: -0.006 |
| RUVBL1 (UniProt Q9Y265) | inactive: 0 |
| RPL39P5 (UniProt Q59GN2) | inactive: 0.018 |
| RUSC2 (UniProt Q8N2Y8) | inactive: -0.178 |
| RPL9 (UniProt P32969) | inactive: 0.031 |
| RPS29 (UniProt P62273) | inactive: 0.047 |
| RRBP1 (UniProt Q9P2E9) | inactive: -0.037 |
| RUFY1 (UniProt Q96T51) | inactive: 0.014 |
| RPS5 (UniProt P46782) | inactive: 0.005 |
| RTTN (UniProt Q86VV8) | inactive: 0.089 |
| RRP8 (UniProt O43159) | inactive: 0.062 |
| RTF2 (UniProt Q9BY42) | inactive: 0.052 |
| RPS20 isoform 2 (UniProt P60866) | inactive: -0.118 |
| RTRAF (UniProt Q9Y224) | inactive: -0.009 |
| RSPRY1 (UniProt Q96DX4) | inactive: 0.031 |
| RTN4 isoform 2 (UniProt Q9NQC3) | inactive: -0.028 |
| RPS13 (UniProt P62277) | inactive: -0.013 |
| RPP25 (UniProt Q9BUL9) | inactive: 0.09 |
| RSL1D1 (UniProt O76021) | inactive: 0.021 |

| Target | log2 fold change |
| --- | --- |
| RPP38 (UniProt P78345) | inactive: 0.026 |
| RPL37 (UniProt P61927) | inactive: 0.057 |
| RPS18 (UniProt P62269) | inactive: -0.009 |
| RPS6 (UniProt P62753) | inactive: -0.002 |
| RRP15 (UniProt Q9Y3B9) | inactive: 0.087 |
| RRP1B (UniProt Q14684) | inactive: -0.024 |
| RTN2 (UniProt O75298) | inactive: -0.133 |
| RTF1 (UniProt Q92541) | inactive: -0.004 |
| RTN3 isoform 5 (UniProt O95197) | inactive: -0.083 |
| RSRC1 (UniProt Q96IZ7) | inactive: -0.009 |
| RPL7 (UniProt P18124) | inactive: -0.003 |
| RPLP0 (UniProt P05388) | inactive: 0.009 |
| RPS25 (UniProt P62851) | inactive: -0.023 |
| RPP21 isoform 4 (UniProt Q9H633) | inactive: 0.016 |
| RPUSD4 (UniProt Q96CM3) | inactive: -0.004 |
| RTCA (UniProt O00442) | inactive: 0.034 |
| RPLP2 (UniProt P05387) | inactive: 0.017 |
| RPS21 (UniProt P63220) | inactive: -0.002 |
| RWDD2A (UniProt Q9UIY3) | inactive: -0.126 |
| RPS27A (UniProt P62979) | inactive: 0.131 |

Compound: CC1=C(SC2=C1C(=N[C@H](C3=NN=C(N32)C)CC(=O)N)C4=CC=C(C=C4)Cl)C
Test: as above
Outline: as §1

| Target | log2 fold change |
| --- | --- |
| RRP1 (UniProt P56182) | inactive: -0.003 |
| RPS16 (UniProt P62249) | inactive: 0.016 |
| RUVBL1 (UniProt Q9Y265) | inactive: 0.014 |
| RPL39P5 (UniProt Q59GN2) | inactive: -0.061 |
| RUSC2 (UniProt Q8N2Y8) | inactive: 0.097 |
| RPL9 (UniProt P32969) | inactive: -0.009 |
| RPS29 (UniProt P62273) | inactive: -0.055 |
| RRBP1 (UniProt Q9P2E9) | inactive: -0.001 |
| RUFY1 (UniProt Q96T51) | inactive: -0.012 |
| RPS5 (UniProt P46782) | inactive: 0.029 |
| RTTN (UniProt Q86VV8) | inactive: -0.033 |
| RRP8 (UniProt O43159) | inactive: 0.053 |
| RTF2 (UniProt Q9BY42) | inactive: 0.021 |
| RPS20 isoform 2 (UniProt P60866) | inactive: 0.064 |
| RTRAF (UniProt Q9Y224) | inactive: -0.103 |
| RSPRY1 (UniProt Q96DX4) | inactive: 0.012 |
| RTN4 isoform 2 (UniProt Q9NQC3) | inactive: 0.106 |
| RPS13 (UniProt P62277) | inactive: 0.032 |
| RPP25 (UniProt Q9BUL9) | inactive: -0.1 |
| RSL1D1 (UniProt O76021) | inactive: -0.002 |

| Target | log2 fold change |
| --- | --- |
| RPP38 (UniProt P78345) | inactive: -0.001 |
| RPL37 (UniProt P61927) | inactive: 0.045 |
| RPS18 (UniProt P62269) | inactive: 0.046 |
| RPS6 (UniProt P62753) | inactive: 0.044 |
| RRP15 (UniProt Q9Y3B9) | inactive: 0.003 |
| RRP1B (UniProt Q14684) | inactive: -0.015 |
| RTN2 (UniProt O75298) | inactive: 0.065 |
| RTF1 (UniProt Q92541) | inactive: 0.006 |
| RTN3 isoform 5 (UniProt O95197) | inactive: 0.064 |
| RSRC1 (UniProt Q96IZ7) | inactive: 0.004 |
| RPL7 (UniProt P18124) | inactive: 0.014 |
| RPLP0 (UniProt P05388) | inactive: 0.038 |
| RPS25 (UniProt P62851) | inactive: 0.025 |
| RPP21 isoform 4 (UniProt Q9H633) | inactive: 0.108 |
| RPUSD4 (UniProt Q96CM3) | inactive: 0.018 |
| RTCA (UniProt O00442) | inactive: 0.028 |
| RPLP2 (UniProt P05387) | inactive: -0.059 |
| RPS21 (UniProt P63220) | inactive: 0.009 |
| RWDD2A (UniProt Q9UIY3) | inactive: 0.005 |
| RPS27A (UniProt P62979) | inactive: -0.152 |
